{"sequences": {"note": "Amino acid sequences for entries named in this document (tags omitted).", "UniProt O15260": "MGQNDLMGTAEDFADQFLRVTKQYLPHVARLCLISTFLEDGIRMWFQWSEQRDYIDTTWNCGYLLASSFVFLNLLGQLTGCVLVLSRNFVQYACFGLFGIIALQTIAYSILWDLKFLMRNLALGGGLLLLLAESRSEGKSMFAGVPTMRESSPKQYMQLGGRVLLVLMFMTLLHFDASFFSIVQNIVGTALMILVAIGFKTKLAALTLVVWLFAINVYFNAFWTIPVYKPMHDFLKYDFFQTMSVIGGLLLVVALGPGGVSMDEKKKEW"}, "source": "paper doi:10.1101/2021.03.11.435014", "target": "eGFP-Surf4 (human) (UniProt O15260)", "assay": "co-IP", "note": "These are yes or no findings as the source states them, for the method shown. In cells and extracts the contact can be indirect. Some binding calls cover weakened binding; strength is not graded here.", "data": [{"binder": "calnexin (protein, UniProt P27824 21-592) HDGHDDDVIDIEDDLDDVIEEVEDSKPDTTAPPSSPKVTYKAPVPTGEVYFADSFDRGTLSGWILSKAKKDDTDDEIAKYDGKWEVEEMKESKLPGDKGLVLMSRAKHHAISAKLNKPFLFDTKPLIVQYEVNFQNGIECGGAYVKLLSKTPELNLDQFHDKTPYTIMFGPDKCGEDYKLHFIFRHKNPKTGIYEEKHAKRPDADLKTYFTDKKTHLYTLILNPDNSFEILVDQSVVNSGNLLNDMTPPVNPSREIEDPEDRKPEDWDERPKIPDPEAVKPDDWDEDAPAKIPDEEATKPEGWLDDEPEYVPDPDAEKPEDWDEDMDGEWEAPQIANPRCESAPGCGVWQRPVIDNPNYKGKWKPPMIDNPSYQGIWKPRKIPNPDFFEDLEPFRMTPFSAIGLELWSMTSDIFFDNFIICADRRIVDDWANDGWGLKKAADGAAEPGVVGQMIEAAEERPWLWVVYILTVALPVFLVILFCCSGKKQTSGMEYKKTDAPQPDVKEEEEEKEEEKDKGDEEEEGEEKLEEKQKSDAEEDGGTVSQEEEDRKPKAEEDEILNRSPRNRKPRRE", "values": [{"measurement": "binding", "value": "no binding"}]}, {"binder": "Prosaposin-RUSH (Prosaposin-SBP-mCherry) (protein, UniProt P07602) GPVLGLKECTRGSAVWCQNVKTASDCGAVKHCLQTVWNKPTVKSLPCDICKDVVTAAGDMLKDNATEEEILVYLEKTCDWLPKPNMSASCKEIVDSYLPVILDIIKGEMSRPGEVCSALNLCESLQKHLAELNHQKQLESNKIPELDMTEVVAPFMANIPLLLYPQDGPRSKPQPKDNGDVCQDCIQMVTDIQTAVRTNSTFVQALVEHVKEECDRLGPGMADICKNYISQYSEIAIQMMMHMQPKEICALVGFCDEVKEMPMQTLVPAKVASKNVIPALELVEPIKKHEVPAKSDVYCEVCEFLVKEVTKLIDNNKTEKEILDAFDKMCSKLPKSLSEECQEVVDTYGSSILSILLEEVSPELVCSMLHLCSGTRLPALTVHVTQPKDGGFCEVCKKLVGYLDRNLEKNSTKQEILAALEKGCSFLPDPYQKQCDQFVAEYEPVLIEILVEVMDPSFVCLKIGACPSAHKPLLGTEKCIWGPSYWCQNTETAAQCNAVEHCKRHVWN", "values": [{"measurement": "binding", "value": "binds"}]}]}
